Experimental data from patent US20160031957A1 (UNITED STATES OF AMERICA AS REPRESENTED BY THE SECRETARY …, published 2016).
No constants are given. Whether binding was seen depends on the method and setting. Some entries that bind do so weakly or less than the wild type.

The chains behind the UniProt entries cited, without tags or fusion partners. Where a name states a change or a piece, a line headed by the entry shows the natural chain unless it says otherwise.
UniProt Q9BXL7: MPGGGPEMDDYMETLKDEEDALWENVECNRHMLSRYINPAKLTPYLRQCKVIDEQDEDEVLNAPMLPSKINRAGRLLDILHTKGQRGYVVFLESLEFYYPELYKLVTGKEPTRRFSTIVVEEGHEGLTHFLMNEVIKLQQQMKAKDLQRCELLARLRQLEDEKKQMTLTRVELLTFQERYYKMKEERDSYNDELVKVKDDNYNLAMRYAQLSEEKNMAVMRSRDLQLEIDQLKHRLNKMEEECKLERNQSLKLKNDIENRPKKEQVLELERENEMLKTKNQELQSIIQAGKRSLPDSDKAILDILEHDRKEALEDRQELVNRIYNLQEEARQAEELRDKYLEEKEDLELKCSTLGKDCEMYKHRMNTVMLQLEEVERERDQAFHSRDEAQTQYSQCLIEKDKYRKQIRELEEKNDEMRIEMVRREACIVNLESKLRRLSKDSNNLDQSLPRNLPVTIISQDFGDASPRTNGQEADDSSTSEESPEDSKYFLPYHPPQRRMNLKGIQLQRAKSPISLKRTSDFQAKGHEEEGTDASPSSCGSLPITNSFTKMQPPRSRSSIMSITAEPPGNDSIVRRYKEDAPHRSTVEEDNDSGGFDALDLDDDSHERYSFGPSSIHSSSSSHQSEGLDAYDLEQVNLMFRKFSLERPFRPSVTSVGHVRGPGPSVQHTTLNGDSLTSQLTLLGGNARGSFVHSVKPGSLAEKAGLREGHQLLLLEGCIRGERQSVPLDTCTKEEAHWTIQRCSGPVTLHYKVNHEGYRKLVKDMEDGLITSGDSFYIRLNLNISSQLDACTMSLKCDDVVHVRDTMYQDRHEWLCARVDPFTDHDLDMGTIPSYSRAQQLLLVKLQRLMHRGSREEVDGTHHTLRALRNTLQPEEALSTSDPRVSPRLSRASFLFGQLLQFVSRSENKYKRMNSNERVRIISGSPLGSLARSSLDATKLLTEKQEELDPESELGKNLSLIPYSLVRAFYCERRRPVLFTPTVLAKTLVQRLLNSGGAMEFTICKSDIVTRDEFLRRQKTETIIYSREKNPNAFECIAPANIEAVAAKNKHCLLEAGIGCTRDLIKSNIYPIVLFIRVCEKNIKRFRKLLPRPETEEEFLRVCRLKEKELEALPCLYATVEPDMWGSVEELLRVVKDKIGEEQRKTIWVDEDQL

Biological target: CBM complex (CARD11, MALT1 and BCL10) (UniProt Q9BXL7)
Experiment: recruitment to the CBM complex in ABC DLBCL cells; method not detailed

binding: binds
B1: A20 (enzyme, UniProt P21580 2-790, looked up)
chain: AEQVLPQALYLSNMRKAVKIRERTPEDIFKPTNGIIHHFKTMHRYTLEMFRTCQFCPQFREIIHKALIDRNIQATLESQKKLNWCREVRKLVALKTNGDGNCLMHATSQYMWGVQDTDLVLRKALFSTLKETDTRNFKFRWQLESLKSQEFVETGLCYDTRNWNDEWDNLIKMASTDTPMARSGLQYNSLEEIHIFVLCNILRRPIIVISDKMLRSLESGSNFAPLKVGGIYLPLHWPAQECYRYPIVLGYDSHHFVPLVTLKDSGPEIRAVPLVNRDRGRFEDLKVHFLTDPENEMKEKLLKEYLMVIEIPVQGWDHGTTHLINAAKLDEANLPKEINLVDDYFELVQHEYKKWQENSEQGRREGHAQNPMEPSVPQLSLMDVKCETPNCPFFMSVNTQPLCHECSERRQKNQNKLPKLNSKPGPEGLPGMALGASRGEAYEPLAWNPEESTGGPHSAPPTAPSPFLFSETTAMKCRSPGCPFTLNVQHNGFCERCHNARQLHASHAPDHTRHLDPGKCQACLQDVTRTFNGICSTCFKRTTAEASSSLSTSLPPSCHQRSKSDPSRLVRSPSPHSCHRAGNDAPAGCLSQAARTPGDRTGTSKCRKAGCVYFGTPENKGFCTLCFIEYRENKHFAAASGKVSPTASRFQNTIPCLGRECGTLGSTMFEGYCQKCFIEAQNQRFHEAKRTEEQLRSSQRRDVPRTTQSTSRPKCARASCKNILACRSEELCMECQHPNQRMGPGAHRGEPAPEDPPKQRCRAPACDHFGNAKCNGYCNECFQFKQMYG
